Our source for the Peak emission values is US20260217667A1, “AMYLOID TARGETING AGENTS” (Amydis, Inc., priority 2023, published 2026).

Molecules are shown by their SMILES.

In this data set the test system is 3RTau. The data set can be described thus: Fluorescence emission spectra of compounds with and without aggregated 3RTau. It is filed as binding. The protocol:
Emission spectra for compound 1 and compound 1a were collected after incubation of the compounds with and without aggregated amyloidogenic protein at specific excitation wavelengths (450 nm and 488 nm) employed in standard ocular imaging equipment. Amyloidogenic proteins (synthetic aggregated amyloid beta (Aβ), α-synuclein (ASYN), transthyretin (TTR), TAR DNA-binding protein 43 (TDP43), and phosphorylated tau (TAU)) were aggregated in vitro using the following procedure. The amyloidogenic protein was removed from the freezer and allowed to warm to room temperature, then 1 mg of amyloidogenic protein was dissolved in 215 μL of ddH2O for about 10-20 mins at room temperature. To the resulting solution, 2 mL of ddH2O was added to provide a 100 μM stock solution. A 100 μL aliquot was sampled and frozen (non-aggregated sample). The tubes were placed in a thermoshaker at 350 rpm for 3 days. Care was taken to avoid generating bubbles. Protein aggregation was confirmed by measuring binding to Thioflavin T (ThT). Aggregated protein was then portioned into 150 μL aliquots and stored at −80° C. The fluorescent emission spectra were measured as follows to determine binding of synthetic aggregated amyloid beta (Aβ), α-synuclein (ASYN), transthyretin (TTR), TAR DNA-binding protein 43 (TDP43), and phosphorylated tau (TAU) to test compounds described herein. The Shimadzu fluorimeter was turned on and allowed to warm up for ~60 minutes. The test compounds were then removed from the −20° C. freezer and were allowed to warm to room temperature. The 100 μM aggregated Aβ solution was then removed from the −80° C. freezer and also allowed to warm to room temperature. 250 μM solutions of each test compound in DMSO were then prepared. These were then used to prepare 4 μM solutions of each test compound, with and without 5 μM aggregated Aβ in 1×PBS, in triplicates. Using a cuvette, the fluorescent emission spectra were measured for each test compound+Aβ solution, employing a DMSO/PBS solution as a blank. Each sample was tested at an excitation of 450 nm and 488 nm. Fluorescent emission spectra were then collected for each 4 μM test compound solution alone. The resulting data were used to plot intensity vs. wavelength for each emission scan. The fold increase at maximum emission (compound+Aβ/compound) is calculated for each test compound.

In the case of `N#C/C(=C\c1ccc2cc(N3CCCCC3)ccc2c1)C(=O)CCCOCCOCCO` [Compound 1, (E)-6-(2-(2-hydroxyethoxy)ethoxy)-3-oxo-2-((6-(piperidin-1-yl)naphthalen-2-yl)methylene)hexanenitrile], the Peak emission reads like this: (excitation 450 nm) 571; (excitation 488 nm) 577.
With `N#C/C(=C\c1ccc2cc(N3CCCCC3)ccc2c1)C(=O)CCC(O)CO` (stereo not shown) [Compound 1a, (E)-6,7-dihydroxy-3-oxo-2-((6-(piperidin-1-yl)naphthalen-2-yl)methylene)heptanenitrile], the Peak emission is on record as 573 (excitation 450 nm) and 571 (excitation 488 nm).
